No signal at the amounts used counts as a negative. At least one verdict was read from the data and is not stated in words by the source.
system: N6amt1 + Trm112; test: EMSA; conditions: 10 mM MgAc2, 250 or 500 pmol protein, 50 pmol DNA; EMSA: 10 mM Tris-HCl pH 7.5, 50 mM KCl, 10 mM MgAc2, 20 ul, 25 C, 2 h; 2.5% agarose, Gel Green; recombinant protein

Binding result, no binding:
AAAATCGAGGTTCCC [DNA3]
CTTTTTAGAAGCACA [DNA1]
AATGAGAAGTTTATC [DNA2]
ACTGACCATGGATCG [DNA4]

Source: paper PMC6796863
